Laboratory results taken from publication PMC3834829.
The exact form of at least one protein or probe is not confirmed. Where cells or extracts were used, other partners may take part. For some assays here: No signal at the amounts used counts as a negative. For some assays here: Where a protein sequence is shown, tags need not be part of it. For some assays here: Weaker means in comparison with the reference protein, sequence or condition of that experiment. For some assays here: At least one verdict was read from the data and is not stated in words by the source.

Sequences of proteins named here, by UniProt entry; tags and fusion partners are left off. A change or cut given only in a name is not applied to a line headed by its entry. Residues count along the entry.
UniProt Q9H165: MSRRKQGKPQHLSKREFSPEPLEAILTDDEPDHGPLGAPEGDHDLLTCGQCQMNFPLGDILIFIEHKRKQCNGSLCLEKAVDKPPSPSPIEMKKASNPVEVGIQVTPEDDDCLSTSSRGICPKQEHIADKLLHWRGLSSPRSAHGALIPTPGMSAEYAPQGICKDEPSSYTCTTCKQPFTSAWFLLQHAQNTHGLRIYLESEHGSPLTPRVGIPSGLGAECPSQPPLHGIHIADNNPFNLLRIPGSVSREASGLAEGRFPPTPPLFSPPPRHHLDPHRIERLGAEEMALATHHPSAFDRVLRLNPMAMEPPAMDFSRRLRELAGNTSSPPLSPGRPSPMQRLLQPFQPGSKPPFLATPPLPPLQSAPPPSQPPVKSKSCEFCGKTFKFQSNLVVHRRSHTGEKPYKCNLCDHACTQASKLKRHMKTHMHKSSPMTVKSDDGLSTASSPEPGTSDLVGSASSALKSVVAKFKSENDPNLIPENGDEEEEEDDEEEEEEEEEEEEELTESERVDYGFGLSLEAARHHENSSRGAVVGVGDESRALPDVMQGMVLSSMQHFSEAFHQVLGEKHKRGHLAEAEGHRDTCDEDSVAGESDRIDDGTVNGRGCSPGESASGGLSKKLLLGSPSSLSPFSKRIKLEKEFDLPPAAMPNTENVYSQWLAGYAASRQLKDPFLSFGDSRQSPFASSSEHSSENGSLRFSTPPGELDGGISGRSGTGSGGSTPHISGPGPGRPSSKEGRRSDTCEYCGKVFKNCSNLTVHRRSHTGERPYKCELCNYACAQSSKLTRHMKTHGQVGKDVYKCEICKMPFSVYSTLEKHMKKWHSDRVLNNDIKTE
UniProt Q9Y466: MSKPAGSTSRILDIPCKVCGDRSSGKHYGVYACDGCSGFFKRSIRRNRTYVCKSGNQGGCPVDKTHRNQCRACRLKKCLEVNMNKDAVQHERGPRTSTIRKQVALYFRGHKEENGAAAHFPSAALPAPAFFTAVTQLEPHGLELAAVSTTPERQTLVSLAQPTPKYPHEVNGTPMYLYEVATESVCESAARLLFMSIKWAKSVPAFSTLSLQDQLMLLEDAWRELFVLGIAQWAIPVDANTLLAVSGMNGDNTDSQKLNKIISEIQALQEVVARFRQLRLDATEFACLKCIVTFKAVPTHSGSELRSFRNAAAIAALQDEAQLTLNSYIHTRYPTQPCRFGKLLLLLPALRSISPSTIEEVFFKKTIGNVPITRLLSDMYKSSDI
UniProt Q9Y5X4, 89-410: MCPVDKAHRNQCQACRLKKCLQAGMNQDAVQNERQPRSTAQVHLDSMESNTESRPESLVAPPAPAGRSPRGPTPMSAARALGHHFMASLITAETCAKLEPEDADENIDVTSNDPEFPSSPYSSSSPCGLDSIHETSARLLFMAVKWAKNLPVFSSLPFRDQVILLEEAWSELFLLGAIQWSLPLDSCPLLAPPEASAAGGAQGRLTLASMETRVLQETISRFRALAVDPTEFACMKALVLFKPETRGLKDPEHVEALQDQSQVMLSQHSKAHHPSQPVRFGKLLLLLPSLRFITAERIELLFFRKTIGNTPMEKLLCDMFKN

Legend:
Experiment in all cases: EMSA
[1] = target: T1, COUP-TFII (UniProt P24468); conditions: 20 mM HEPES-KOH pH 7.9, 12% glycerol, 50 mM KCl, 1 mM DTT, 1 ug poly(dI:dC), 3 ug BSA, 10 ul, room temperature 20 min, 5% PAGE, 0.5x TBE, protein in an extract, protein details: untagged (pTL1-COUP-TFII), label: 5'-32P
T1 sequence (looked up, limits assumed): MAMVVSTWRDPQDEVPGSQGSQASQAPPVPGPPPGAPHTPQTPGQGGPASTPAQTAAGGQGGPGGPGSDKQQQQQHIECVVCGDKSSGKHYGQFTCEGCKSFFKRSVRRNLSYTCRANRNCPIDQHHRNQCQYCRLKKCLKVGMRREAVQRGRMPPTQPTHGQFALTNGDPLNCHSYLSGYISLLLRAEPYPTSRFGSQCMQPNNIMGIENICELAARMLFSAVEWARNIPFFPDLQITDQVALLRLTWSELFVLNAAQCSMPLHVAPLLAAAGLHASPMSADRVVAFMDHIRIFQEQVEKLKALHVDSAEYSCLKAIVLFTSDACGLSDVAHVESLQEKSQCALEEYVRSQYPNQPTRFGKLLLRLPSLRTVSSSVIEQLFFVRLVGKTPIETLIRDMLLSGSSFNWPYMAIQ

[2] = target: BCL11A-XL (UniProt Q9H165); conditions: diffuse shifts at high concentration; 20 mM HEPES-KOH pH 7.9, 12% glycerol, 50 mM KCl, 1 mM DTT, 1 ug poly(dI:dC), 3 ug BSA, 10 ul, room temperature 20 min; 5% PAGE, 0.5x TBE; protein in an extract; protein details: FLAG; label: 5'-32P
[3] = target: TLX (UniProt Q9Y466); conditions: no strong binding; 20 mM HEPES-KOH pH 7.9, 12% glycerol, 50 mM KCl, 1 mM DTT, 1 ug poly(dI:dC), 3 ug BSA, 10 ul, room temperature 20 min; 5% PAGE, 0.5x TBE; protein in an extract; protein details: HA; label: 5'-32P
[4] = target: PNR (UniProt Q9Y5X4); conditions: no strong binding; 20 mM HEPES-KOH pH 7.9, 12% glycerol, 50 mM KCl, 1 mM DTT, 1 ug poly(dI:dC), 3 ug BSA, 10 ul, room temperature 20 min; 5% PAGE, 0.5x TBE; protein in an extract; residues 89-410; protein details: HA; label: 5'-32P
[5] = half-site mutations disrupt complex

“TTCCGTGGCCCGAACTGGAAATTAGGAAATTTGTGTCTGAAACAGGCTTGATCTATA (double strand) [Bgl3 739-795mut (+198/+255 mutant)]”: no binding [1, 5].

“GACTGGCCTCAGAGGAAACTTCAGGTCATGTC (double strand) [Bgl3 128-151 (+812/+843)]”: binds more weakly [2]; binds [1]; binds more weakly [3]. “GACTGGCCTCAGAGGAAACTTCAGGTCATGTC (double strand) [Bgl3 128-151 (+812/+843)]”: binds more weakly [4].

“TTCCGTGGCCCGTGCTGGGCATTAGGTCATTT (double strand) [Bgl3 739-763 (+198/+231)]”: binds more weakly [2]; binds [1]; binds more weakly [3]. “TTCCGTGGCCCGTGCTGGGCATTAGGTCATTT (double strand) [Bgl3 739-763 (+198/+231)]”: binds more weakly [4].

“GGTGATGTCAGACTAGTTGGGTCATTTG (double strand) [RARbeta2 COUP-TFII RE (DR8)]”: binds [1].

“GACTGGCCAAAGAGGAAACTTCAGGAAATGTCCTTTAATGGCCCTAAAACTCATTC (double strand) [Bgl3 128-182mut (+812/+867 mutant)]”: no binding [1, 5].
